Results: patent US20130197191A1 (published 2013)

Protein sequences, listed by entry. Tags and fused reporters are not part of them. Residues count along the entry.
UniProt Q86Z14, 53-996: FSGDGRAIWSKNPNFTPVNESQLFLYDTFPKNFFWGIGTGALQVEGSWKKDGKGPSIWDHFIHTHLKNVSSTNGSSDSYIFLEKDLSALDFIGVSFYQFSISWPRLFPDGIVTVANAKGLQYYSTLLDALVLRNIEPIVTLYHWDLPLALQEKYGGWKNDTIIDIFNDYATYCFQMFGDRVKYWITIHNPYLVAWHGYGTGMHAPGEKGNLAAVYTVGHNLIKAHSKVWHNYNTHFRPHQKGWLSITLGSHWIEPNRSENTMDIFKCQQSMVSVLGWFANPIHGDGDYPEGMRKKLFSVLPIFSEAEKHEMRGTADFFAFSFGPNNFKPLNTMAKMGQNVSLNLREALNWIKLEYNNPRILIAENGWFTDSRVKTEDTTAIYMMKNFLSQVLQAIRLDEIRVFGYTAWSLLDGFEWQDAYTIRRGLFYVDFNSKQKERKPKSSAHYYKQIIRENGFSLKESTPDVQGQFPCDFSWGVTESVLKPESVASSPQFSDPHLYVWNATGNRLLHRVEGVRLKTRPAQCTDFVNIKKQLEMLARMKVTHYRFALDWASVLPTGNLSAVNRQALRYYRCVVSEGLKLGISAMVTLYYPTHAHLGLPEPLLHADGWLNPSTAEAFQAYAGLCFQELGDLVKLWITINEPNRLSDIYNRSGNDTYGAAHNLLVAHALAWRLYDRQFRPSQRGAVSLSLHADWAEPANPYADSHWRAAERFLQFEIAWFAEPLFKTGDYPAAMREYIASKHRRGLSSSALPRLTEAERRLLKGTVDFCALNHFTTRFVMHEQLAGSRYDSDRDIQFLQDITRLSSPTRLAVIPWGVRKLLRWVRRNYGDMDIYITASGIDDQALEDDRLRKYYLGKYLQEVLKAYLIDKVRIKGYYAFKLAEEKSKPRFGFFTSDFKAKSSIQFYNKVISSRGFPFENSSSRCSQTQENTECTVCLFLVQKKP

Molecular target: recombinant human β-Klotho (UniProt Q86Z14 53-996, biotinylated in the AlphaScreen assays (site not stated))
Test: binding EC50

EC50: 2.4 nM
B1: β-Klotho walked dimer bKWD37 (designed binder)
chain: CLSDQFQCNNYETCIPRPWLCDGDDDCVDGSDEEDCETRTCHSFNQFECRNGQCIPLHLVCDGVPDCGDNSDETDCGDSHILPFSTPGPST
